Experimental data reported in article PMC10564737, “Structure-based design of a phosphotyrosine-masked covalent ligand targeting the E3 ligase SOCS2” (Nature Communications, 2023).
Values joined by “and” are separate entries in the source; they are usually repeats but may differ in a detail not shown here. Equal values may be shown once. The source gives many values for each of these; only a part stands here.

Amino acid sequences for entries named in this document (tags omitted). Residues count along the entry.
UniProt O14508, 32-198: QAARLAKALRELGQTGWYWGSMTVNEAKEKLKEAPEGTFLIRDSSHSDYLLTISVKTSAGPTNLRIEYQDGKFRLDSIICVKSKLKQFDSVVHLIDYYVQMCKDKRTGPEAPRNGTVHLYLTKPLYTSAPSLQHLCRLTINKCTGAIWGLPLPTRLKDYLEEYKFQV

Biological target: T1, SBC2 (Homo sapiens, UniProt O14508)
T1 construct: SOCS2 (amino acids 32–198); His6 (N, cleaved yes); made in house; host or cells: E. coli BL21(DE3)
Test: Covalent fluorescence polarization (FP) probe displacement assay
Assay type: binding
From the text: With the specific covalent modification of Cys111 established, we decided to fully characterize MN551 as a covalent SOCS2 inhibitor. […] (Fig. 2g, h, Supplementary Fig. 9). Due to the covalent nature of the competing inhibitor, a time-dependent reduction in the fraction of protein-bound probe is observed. […] This value illustrates reasonable specificity for a covalent inhibitor, with nonetheless scope for future optimization. In addition to characterizing the kinetic covalency parameters, we have also assessed the stability of the MN551 by monitoring its reactivity (half-life >70 min) with reduced glutathione (GSH) (Supplementary Fig. 10)[35].
To monitor the SBC2-ligand binding kinetics we designed a fluorescein-labeled small-molecule probe - compound 26. The fluorescence polarization (anisotropy) of a threefold serial dilution of 50 µM SBC2 in 10 nM of the probe in 100 mM HEPES pH 7.5, 50 mM NaCl, 0.5 mM TCEP, 2% DMSO was measured to determine the KL (Supplementary Fig. 9A) (BMG Labtech PHERAstar – firmware v1.33). Protein titration and the curves were fitted using GraphPad Prism 9, using one-site fitting models to determine the probe binding constant, KL. Samples were run in triplicate in 384 well plates, using a total volume per well of 16 μL. The bound fraction of the probe is measure using the equation:1 Fb=Af−A/Af−Ab Where,
A time-dependent reduction in probe anisotropy were measured for a 2-fold serial dilution of […] compound MN551 in 10 nM probe +300 μM SBC2. To determine the initial reversible binding affinity, the initial bound fraction of the probe at time = 0, Fbo (the y-intercept in Fb v/s Time plot, Supplementary Fig. 9B) was plotted against MN551 concentration, and the obtained IC50 is then converted to Ki (Supplementary Fig. 9C)[17]. The slope from Fb versus time graph when divided by Fbo gives rate of covalency, kobs. A plot of kobs v/s MN551 concentration using Michaelis–Menten model of GraphPad Prism 9, provides the parameters kinact (maximum potential rate of inactivation) and KI (concentration of MN551 at which kobs = kinact/2) (Supplementary Fig. 9D, E).
The observed first-order rate constant, kobs is related to KI and kinact by the equation:2 kobs=kinactI/KI+I
At [I]«[KI] the above equation is converted to3 […]
The slope from the plot of kobs against concentration of MN551 gives us the covalent efficiency parameter kinact/KI (Supp Fig. 9F)[30],[33].

[1] = MN551 34.5716 nM, Cycle 8 (35 min)
[2] = MN551 34.5716 nM, Cycle 9 (40 min)
[3] = MN551 34.5716 nM, Cycle 10 (45 min)
[4] = MN551 34.5716 nM, Cycle 11 (50 min)
[5] = MN551 34.5716 nM, Cycle 15 (70 min), n=1
[6] = MN551 34.5716 nM, Cycle 16 (75 min), n=1
[7] = MN551 34.5716 nM, Cycle 17 (80 min), n=1
[8] = MN551 34.5716 nM; Cycle 6 (25 min)
[9] = MN551 34.5716 nM; Cycle 7 (30 min)
[10] = MN551 34.5716 nM; Cycle 8 (35 min)
[11] = MN551 34.5716 nM; Cycle 9 (40 min)
[12] = MN551 34.5716 nM; Cycle 10 (45 min)
[13] = MN551 34.5716 nM; Cycle 12 (55 min); n=1
[14] = MN551 34.5716 nM; Cycle 13 (60 min); n=1
[15] = MN551 34.5716 nM; Cycle 14 (65 min); n=1
[16] = MN551 34.5716 nM; Cycle 15 (70 min); n=1
[17] = MN551 34.5716 nM; Cycle 16 (75 min); n=1
[18] = MN551 48.4003 nM, Cycle 8 (35 min)
[19] = MN551 48.4003 nM, Cycle 9 (40 min)
[20] = MN551 48.4003 nM, Cycle 10 (45 min)
[21] = MN551 48.4003 nM, Cycle 11 (50 min)
[22] = MN551 48.4003 nM, Cycle 15 (70 min), n=1
[23] = MN551 48.4003 nM, Cycle 16 (75 min), n=1
[24] = MN551 48.4003 nM, Cycle 17 (80 min), n=1
[25] = MN551 48.4003 nM, Cycle 18 (85 min), n=1
[26] = MN551 48.4003 nM; Cycle 6 (25 min)
[27] = MN551 48.4003 nM; Cycle 7 (30 min)
[28] = MN551 48.4003 nM; Cycle 8 (35 min)

O=C(CCl)Nc1cccc(CNC(=O)[C@H](Cc2ccc(OP(=O)(O)O)cc2)NC(=O)Cc2ccc(F)cc2)c1 [MN551] was tested, and the “Anisotropy data 485,520,520” value (MN551 24.694 nM; Cycle 19 (90 min); n=1) was 275.7 and 272.1 and 271.5, the “Anisotropy data 485,520,520” value (MN551 24.694 nM; Cycle 20 (95 min); n=1) was 276.4 and 273 and 271.9 and the Fb (MN551 34.5716 nM, Cycle 7 (30 min)) was 0.9231 and 0.9524 and 0.9443. The “Anisotropy based on Raw Data (485)” value [1] was 272.8 and 277.1 and 280.8, the Fb [1] was 0.8869 and 0.9163 and 0.9381 and the “Anisotropy based on Raw Data (485)” value [2] was 272.2 and 273.3 and 280.8. For the same compound, the Fb [2] was 0.8993 and 0.9292 and 0.9607, the “Anisotropy based on Raw Data (485)” value [3] was 272.1 and 276.8 and 279.5 and the Fb [3] was 0.9166 and 0.9701 and 0.953. The “Anisotropy based on Raw Data (485)” value [4] was 271.9 and 272.2 and 277, the Fb [4] was 0.912 and 0.9155 and 0.9264 and the Anisotropy (MN551 34.5716 nM, Cycle 13 (60 min), n=1) was 281.8 and 280.9 and 278.2. The Anisotropy (MN551 34.5716 nM, Cycle 14 (65 min), n=1) was 280.1 and 277.4 and 275.9, the Anisotropy [5] was 280 and 278.9 and 276.6 and the “Normalised anisotropy (0 nM MN551 = 1, free probe = 0)” value [5] was 1.071 and 1.0408 and 1.031. For the same compound, the Anisotropy [6] was 279.2 and 276.9 and 274.1, the “Normalised anisotropy (0 nM MN551 = 1, free probe = 0)” value [6] was 1.035 and 1.039 and 1.006 and the Anisotropy [7] was 276.8 and 275.1 and 276. For the same compound, the “Normalised anisotropy (0 nM MN551 = 1, free probe = 0)” value [7] was 1.038 and 1.014 and 1.054, the “Fb, fraction bound” value (MN551 34.5716 nM; Cycle 3 (10 min)) was 1.063 and 1.078 and 1.017 and the “Fb, fraction bound” value (MN551 34.5716 nM; Cycle 4 (15 min)) was 1.071 and 1.037 and 1.072. The “Fb, fraction bound” value (MN551 34.5716 nM; Cycle 5 (20 min)) was 1.076 and 1.0403 and 1.068, the “Anisotropy data 485,520,520” value [8] was 275 and 271.2 and 273 and the Fb [8] was 0.9618 and 0.9951 and 1.146. For the same compound, the “Fb, fraction bound” value [8] was 1.0603 and 1.052 and 1.045, the “Anisotropy data 485,520,520” value [9] was 274.7 and 271.9 and 270.8 and the Fb [9] was 0.962 and 1.009 and 1.136. For the same compound, the “Fb, fraction bound” value [9] was 1.021 and 1.045 and 1.044, the Anisotropy [10] was 284.8 and 282 and 281 and the “Anisotropy data 485,520,520” value [10] was 271.5 and 268.4 and 271.9. For the same compound, the Fb [10] was 0.9416 and 1.026 and 1.151 and 1.079 and 1.025 and 1.053, the Anisotropy [11] was 283.4 and 282.5 and 281.2 and the “Anisotropy data 485,520,520” value [11] was 272.7 (2×) and 268.3. The Fb [11] was 0.9468 and 1.0081 and 1.143 and 1.074 and 1.0255 and 1.049, the Anisotropy [12] was 285.2 and 280.6 and 281.5 and the “Anisotropy data 485,520,520” value [12] was 271 and 269.7 and 270.4. For the same compound, the Fb [12] was 0.9701 and 1.038 and 1.161 and 1.082 and 1.018 and 1.0508, the Anisotropy (MN551 34.5716 nM; Cycle 11 (50 min); n=1) was 270.4 and 266.3 and 266.5 and the Anisotropy [13] was 269 and 266.6 and 269.7. For the same compound, the “Anisotropy based on Raw Data (485)” value [13] was 271.9 and 273 and 279.7, the Anisotropy [14] was 270.8 and 265.4 and 266.7 and the “Anisotropy based on Raw Data (485)” value [14] was 269.7 and 271.6 and 275.7. For the same compound, the Anisotropy [15] was 270.2 and 264.8 and 269.3, the “Anisotropy based on Raw Data (485)” value [15] was 270.3 and 272.6 and 275.5 and the Anisotropy [16] was 268.1 and 263.8 and 265.3. The “Anisotropy based on Raw Data (485)” value [16] was 268.6 and 271.7 and 275.2, the Anisotropy [17] was 268.6 and 264 and 267.3 and the “Anisotropy based on Raw Data (485)” value [17] was 270.6 and 272.2 and 274.4. For the same compound, the “Anisotropy data 485,520,520” value (MN551 34.5716 nM; Cycle 19 (90 min); n=1) was 279.7 and 276.9 and 273.7, the “Anisotropy data 485,520,520” value (MN551 34.5716 nM; Cycle 20 (95 min); n=1) was 278.1 and 275.2 and 274.7 and the Fb (MN551 48.4003 nM, Cycle 7 (30 min)) was 0.8782 and 0.9246 and 0.9336. For the same compound, the “Anisotropy based on Raw Data (485)” value [18] was 278.2 and 278.9 and 277.3, the Fb [18] was 0.8787 and 0.899 and 0.9194 and the “Anisotropy based on Raw Data (485)” value [19] was 277.6 and 275.5 and 276.7. For the same compound, the Fb [19] was 0.8575 and 0.9214 and 0.9234, the “Anisotropy based on Raw Data (485)” value [20] was 274.9 and 276 and 277.4 and the Fb [20] was 0.88 and 0.9122 and 0.9097. The “Anisotropy based on Raw Data (485)” value [21] was 277.7 and 274.6 and 278.2, the Fb [21] was 0.8694 and 0.9078 and 0.9264 and the Anisotropy (MN551 48.4003 nM, Cycle 13 (60 min), n=1) was 280.1 and 277 and 273. The Anisotropy (MN551 48.4003 nM, Cycle 14 (65 min), n=1) was 277.7 and 274.5 and 274.6, the Anisotropy [22] was 278.7 and 274.7 and 272 and the “Normalised anisotropy (0 nM MN551 = 1, free probe = 0)” value [22] was 1.058 and 1.001 and 0.9865. For the same compound, the Anisotropy [23] was 277.5 and 275.2 and 272.2, the “Normalised anisotropy (0 nM MN551 = 1, free probe = 0)” value [23] was 1.019 and 1.022 and 0.9876 and the Anisotropy [24] was 275.1 and 273.1 and 270.2. For the same compound, the “Normalised anisotropy (0 nM MN551 = 1, free probe = 0)” value [24] was 1.022 and 0.9942 and 0.9971, the Anisotropy [25] was 276.5 and 273.1 and 272 and the “Normalised anisotropy (0 nM MN551 = 1, free probe = 0)” value [25] was 1.046 and 1.009 and 1.043. For the same compound, the “Fb, fraction bound” value (MN551 48.4003 nM; Cycle 3 (10 min)) was 1.04 and 1.0214 and 1.005, the “Fb, fraction bound” value (MN551 48.4003 nM; Cycle 4 (15 min)) was 1.046 and 1.006 and 1.039 and the “Fb, fraction bound” value (MN551 48.4003 nM; Cycle 5 (20 min)) was 1.0163 and 1.003 and 1.023. The “Anisotropy data 485,520,520” value [26] was 272.2 and 270.3 and 272, the Fb [26] was 1.015 and 1.0265 and 1.112 and the “Fb, fraction bound” value [26] was 1.049 and 1.012 and 1.014. For the same compound, the “Anisotropy data 485,520,520” value [27] was 269.8 and 269.1 and 269.7, the Fb [27] was 1.018 and 1.033 and 1.105 and the “Fb, fraction bound” value [27] was 1.003 and 1.025 and 1.034. For the same compound, the Anisotropy [28] was 280.7 and 279.3 and 278.9 and the “Anisotropy data 485,520,520” value [28] was 270.6 and 266.6 and 269.9.
